# Screening data

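Genome-wide siRNA knockdown in TC32 Ewing sarcoma cells, comparing luciferase light from an NR0B1-promoter reporter with a CMV-promoter reporter 48 hours after transfection.
Each siRNA was applied at 20 nM.
A z-score of the log NR0B1-over-CMV signal, less the median of siRNAs with the same seed; more negative means a stronger specific loss of the NR0B1 reporter.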

The strongest results of the screen are mostly left out here.
Sequences are the guide (antisense) strand, without overhang.

siRNA,target gene,seed-corrected z-score
UCAGCGAUCUCCUCCAAGG,TEKT2,-0.1605
UUAAUGUAGAAGUAGACGG,TECTA,-0.1827
AUUGGUAUGAAGUCGUUAC,FAM201A,1.296
AAUGCUAGACAUGUCAUCC,NXF1,1.647
UUCCUCAACAUAGUCUUCC,TTLL13P,0.9568
UACAGACUAACAUCCCUGG,CACNA1C,0.9533
UCAGUGUCGAGUGUGAAAG,HOXA2,0.0942
AAAGAUACCUCCGUGUUGG,CEP76,-0.8657
UCAACGAAAAUGCUAAUGU,SSX6,0.02194
UUAUUCUACAUGGAGAUGC,FGF1,-0.1861
UUCCUAAUAUGAUCCAUUG,C11orf70,0.2258
UCUUGGUGUAGAGAGCGCG,CCDC40,1.096
UAUCGUCUAAGAAGGUGUC,AMPD1,-0.7531
AAAAUAUGGACACUUGUUG,IL9,0.3668
ACAGUACAAAUUAAGGCCC,KLF2,0.537
UUUCAGUUCAUACUUUUCC,TREM1,-0.04315
UAAUCCCUGAAGAUAGACC,SAA4,-0.1935
UGGUAAAUCAUCUAUGUAC,TM9SF3,0.6646
UCAGGUCUUAGUUCGAUGU,KCNK6,-1.169
UGCCCAAAGAUGAAGGUGC,SLC38A8,-0.3561
UCACUGACGCCACUAGUUU,GPRIN2,-1.016
UUGACAUUAGGAGCAAUUC,MYB,0.8023
ACAGGAGACAGUGAUAGGG,LOC100422561,0.4659
AUUGGGUUCAUAAAAUGGA,TRAPPC2,1.016
AAAGCAGUAAAAGUGAAUG,PLOD1,0.6941
UGAGCUAUCUUUCCUUACC,JADE3,0.1574
UUCUGGUCCUCAAUCUUGU,THEM5,0.5025
UAGAUUAACAAACUCGUAG,CCDC62,-0.01129
UUUCCAACCACUGAGGAGC,WDFY1,0.01121
UAUGAUAUCUAUCCGCUUG,YEATS2,0.1891
UCUUUCACUGCGGCUGUUC,VASH1,2.522
AUAAGUAUUUGAACGGUGC,PCDHA2,0.1125
UGUAAACUAACCAAAUUUC,LRRD1,0.009971
UAGGAACCCUGGGCAAUCC,DGKQ,0.03372
AGUCUGCACACUCCUUUGC,RPL23,-0.7726
AAGUACUCAAGUUACAGCC,MTERF1,-0.193
UACAUUUUCAGUCGUGCUC,PTS,0.3992
UAUGUACCGACAGUCACUG,TYRO3,-0.02601
UGGUGUGGAAGUAAGACUG,KRT38,1.48
UUGGAUAAAAAGGCCCUUC,MCTS1,0.07248
UUUGGUCACUGCCGUCACC,GPR135,-1.843
UGAACAGACACGACAAGAG,RPS29,1.296
UCAUGAGCAAGUUGGAAAC,CDK10,0.1722
UAGUUGUUGUCAUCAGUGC,HTR1F,0.6108
UUUCAUCGUACUGAGAUGC,DDX27,-0.8002
UCUCGUAAGAUAGCUACCC,PAPSS2,-0.4042
AACAUUUCCUCUAUAAUCU,DUT,0.1134
AAAGUUACAGGUGAGAUUA,NANOS1,-0.4583
UCAGAGGCACUCUCAAAGC,REM1,0.07762
UCUUGUGCUGGAAUAGUCG,QARS,-0.3135
UCCAUGAUGAUGUUUGGCU,PMS2P3,0.4787
UCUCGGAACAGUUUAUAGC,PADI6,1.023
AUAGCAUAAAGCAGGAUGC,COL6A4P1,-0.1205
AAAGCGGACAUUCUCCUCG,FAM195A,1.53
UUUGUAUCGGAUCAAGUGC,GINS4,-1.485
AACAUGACUCUCGCUGCUC,C16orf82,-1.416
UUAUGGUCUGCUGUAACCG,GOLGA6B,0.8125
UAUAGAUUCCACAUAAGUC,ADAL,0.2825
UUUCAUAAGAAUAUGGGCG,ADRB2,-0.4068
AAAGUUACUAGUUACGUCC,KCNN3,-0.8738
UUGCGGAUUAGGUAGAAGA,ADORA1,-0.6572
UGUUCGGCAAUGACCAUCC,PIK3R6,-0.6893
UUUAUAGUUUCGUGUAUCC,C14orf39,0.5019
ACAGUUAAAACAGUCUGUG,PPP1CC,0.521
UGAUUGAUAUCCUGAAUGC,IL36A,0.3026
UAACGGACAAUGCAGAUCC,TMEM150B,-0.7234
ACUGAUGCUACUACAGGUG,R3HDML,-0.7283
UUCGUUAAUCCGGUGAUAG,ACOX1,0.2999
UCUGUUGUCUUUGUACACC,FBXL20,0.6279

Some entries from above, unchanged:

| siRNA | target gene | seed-corrected z-score |
|---|---|---|
| `UGAACAGACACGACAAGAG` | RPS29 | 1.296 |
| `UUGACAUUAGGAGCAAUUC` | MYB | 0.8023 |
| `UGGUGUGGAAGUAAGACUG` | KRT38 | 1.48 |
| `AAAAUAUGGACACUUGUUG` | IL9 | 0.3668 |
| `AAAGUUACUAGUUACGUCC` | KCNN3 | -0.8738 |

The results are deposited in PubChem (AID1159506; NCATS, 2015).